Data on 14 targets can be found in the supplement of paper PMC12067093, “Discovery and optimisation of a covalent ligand for TRIM25 and its application to targeted protein ubiquitination” (Chemical Science, 2025).

Chains of the proteins cited; added tags and fusions are not shown. Lines headed by an entry give the natural chain unless they say otherwise; changes in a name come on top.
UniProt Q9HCU9: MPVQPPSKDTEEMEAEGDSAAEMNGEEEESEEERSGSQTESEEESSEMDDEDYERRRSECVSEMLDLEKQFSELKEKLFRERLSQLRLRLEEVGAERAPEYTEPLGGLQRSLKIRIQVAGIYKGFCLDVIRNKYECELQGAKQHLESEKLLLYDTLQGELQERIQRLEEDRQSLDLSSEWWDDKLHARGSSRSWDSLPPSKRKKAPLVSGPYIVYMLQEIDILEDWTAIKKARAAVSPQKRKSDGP
UniProt Q86VP6: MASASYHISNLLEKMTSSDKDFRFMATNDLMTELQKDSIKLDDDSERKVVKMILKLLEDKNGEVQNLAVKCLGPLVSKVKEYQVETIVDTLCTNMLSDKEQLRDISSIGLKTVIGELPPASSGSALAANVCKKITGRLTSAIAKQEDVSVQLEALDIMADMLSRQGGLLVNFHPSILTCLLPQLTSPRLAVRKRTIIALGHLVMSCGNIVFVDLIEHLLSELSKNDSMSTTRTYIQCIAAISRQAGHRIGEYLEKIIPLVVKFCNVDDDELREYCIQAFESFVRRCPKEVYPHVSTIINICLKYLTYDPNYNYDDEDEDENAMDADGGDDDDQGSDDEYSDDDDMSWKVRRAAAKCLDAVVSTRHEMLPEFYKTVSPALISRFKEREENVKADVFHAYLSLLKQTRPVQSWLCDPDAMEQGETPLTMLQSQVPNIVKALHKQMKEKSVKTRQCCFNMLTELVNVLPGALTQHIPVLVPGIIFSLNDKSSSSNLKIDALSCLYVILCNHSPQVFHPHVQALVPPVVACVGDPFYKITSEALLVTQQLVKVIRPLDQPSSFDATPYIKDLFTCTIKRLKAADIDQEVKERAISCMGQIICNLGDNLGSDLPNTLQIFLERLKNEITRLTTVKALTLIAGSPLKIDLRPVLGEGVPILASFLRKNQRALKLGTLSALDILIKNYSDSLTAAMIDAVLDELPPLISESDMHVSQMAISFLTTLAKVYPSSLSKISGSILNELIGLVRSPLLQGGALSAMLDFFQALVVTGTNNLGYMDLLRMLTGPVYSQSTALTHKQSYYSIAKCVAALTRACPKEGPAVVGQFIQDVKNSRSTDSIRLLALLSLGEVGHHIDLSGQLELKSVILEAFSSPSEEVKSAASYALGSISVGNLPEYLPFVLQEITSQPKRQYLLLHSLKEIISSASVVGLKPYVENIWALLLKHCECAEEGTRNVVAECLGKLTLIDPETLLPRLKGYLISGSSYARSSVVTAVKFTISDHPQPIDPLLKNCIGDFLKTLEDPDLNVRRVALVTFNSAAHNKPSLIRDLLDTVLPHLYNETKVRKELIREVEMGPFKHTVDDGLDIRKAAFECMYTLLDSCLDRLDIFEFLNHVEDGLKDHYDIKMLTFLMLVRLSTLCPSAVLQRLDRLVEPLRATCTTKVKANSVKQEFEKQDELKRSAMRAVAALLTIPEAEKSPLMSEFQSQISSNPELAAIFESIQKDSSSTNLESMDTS
UniProt Q5T6V5: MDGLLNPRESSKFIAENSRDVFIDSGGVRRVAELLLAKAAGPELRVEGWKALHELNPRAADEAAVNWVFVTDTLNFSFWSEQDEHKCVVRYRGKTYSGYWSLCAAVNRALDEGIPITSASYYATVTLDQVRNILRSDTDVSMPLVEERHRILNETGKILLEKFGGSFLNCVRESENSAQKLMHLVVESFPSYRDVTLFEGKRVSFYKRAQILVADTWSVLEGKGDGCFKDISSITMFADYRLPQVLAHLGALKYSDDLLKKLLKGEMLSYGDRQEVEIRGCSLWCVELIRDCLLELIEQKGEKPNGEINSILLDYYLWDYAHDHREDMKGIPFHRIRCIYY
UniProt Q9HB71, whole entry, looked up: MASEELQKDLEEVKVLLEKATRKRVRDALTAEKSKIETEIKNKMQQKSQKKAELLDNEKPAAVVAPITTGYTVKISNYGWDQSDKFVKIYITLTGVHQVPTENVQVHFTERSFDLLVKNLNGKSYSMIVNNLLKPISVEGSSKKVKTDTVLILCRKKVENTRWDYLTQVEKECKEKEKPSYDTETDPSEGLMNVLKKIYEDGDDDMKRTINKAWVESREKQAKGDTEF
UniProt Q13557, whole entry, looked up: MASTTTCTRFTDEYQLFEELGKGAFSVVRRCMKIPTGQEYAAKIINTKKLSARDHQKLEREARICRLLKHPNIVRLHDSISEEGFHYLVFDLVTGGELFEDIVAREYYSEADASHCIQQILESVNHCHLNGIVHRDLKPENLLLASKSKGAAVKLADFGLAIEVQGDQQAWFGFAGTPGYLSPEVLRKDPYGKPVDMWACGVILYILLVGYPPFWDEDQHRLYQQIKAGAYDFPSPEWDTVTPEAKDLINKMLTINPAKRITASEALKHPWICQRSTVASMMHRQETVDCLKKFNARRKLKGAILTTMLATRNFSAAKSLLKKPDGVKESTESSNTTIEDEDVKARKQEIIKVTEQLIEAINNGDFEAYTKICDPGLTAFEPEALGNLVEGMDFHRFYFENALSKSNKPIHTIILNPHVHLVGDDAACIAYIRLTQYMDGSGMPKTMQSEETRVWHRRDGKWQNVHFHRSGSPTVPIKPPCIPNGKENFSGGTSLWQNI
UniProt Q10588: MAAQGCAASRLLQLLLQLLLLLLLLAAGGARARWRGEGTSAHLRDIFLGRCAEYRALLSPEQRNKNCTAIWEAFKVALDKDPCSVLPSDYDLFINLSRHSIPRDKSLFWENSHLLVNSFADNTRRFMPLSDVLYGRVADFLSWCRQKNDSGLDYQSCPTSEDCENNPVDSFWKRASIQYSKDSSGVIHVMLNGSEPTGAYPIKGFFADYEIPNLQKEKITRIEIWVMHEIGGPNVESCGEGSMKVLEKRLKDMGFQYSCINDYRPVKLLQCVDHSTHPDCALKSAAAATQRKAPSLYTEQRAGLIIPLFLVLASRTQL
UniProt P27824: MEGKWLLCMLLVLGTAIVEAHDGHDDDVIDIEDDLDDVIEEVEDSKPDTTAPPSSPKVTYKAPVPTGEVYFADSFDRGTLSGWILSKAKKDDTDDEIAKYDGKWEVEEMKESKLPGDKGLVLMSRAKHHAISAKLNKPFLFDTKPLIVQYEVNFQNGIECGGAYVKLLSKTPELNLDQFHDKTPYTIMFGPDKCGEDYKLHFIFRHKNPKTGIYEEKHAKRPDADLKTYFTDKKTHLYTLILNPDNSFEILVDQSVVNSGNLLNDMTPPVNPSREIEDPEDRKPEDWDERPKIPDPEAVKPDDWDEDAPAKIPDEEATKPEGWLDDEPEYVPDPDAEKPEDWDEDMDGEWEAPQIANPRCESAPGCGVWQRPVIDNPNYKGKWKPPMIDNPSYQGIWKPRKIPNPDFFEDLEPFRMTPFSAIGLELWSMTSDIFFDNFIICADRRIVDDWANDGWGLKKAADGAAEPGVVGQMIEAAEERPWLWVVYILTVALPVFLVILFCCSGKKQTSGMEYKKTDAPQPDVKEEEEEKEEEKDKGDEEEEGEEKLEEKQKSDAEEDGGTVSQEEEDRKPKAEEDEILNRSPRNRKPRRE
UniProt Q86YS7: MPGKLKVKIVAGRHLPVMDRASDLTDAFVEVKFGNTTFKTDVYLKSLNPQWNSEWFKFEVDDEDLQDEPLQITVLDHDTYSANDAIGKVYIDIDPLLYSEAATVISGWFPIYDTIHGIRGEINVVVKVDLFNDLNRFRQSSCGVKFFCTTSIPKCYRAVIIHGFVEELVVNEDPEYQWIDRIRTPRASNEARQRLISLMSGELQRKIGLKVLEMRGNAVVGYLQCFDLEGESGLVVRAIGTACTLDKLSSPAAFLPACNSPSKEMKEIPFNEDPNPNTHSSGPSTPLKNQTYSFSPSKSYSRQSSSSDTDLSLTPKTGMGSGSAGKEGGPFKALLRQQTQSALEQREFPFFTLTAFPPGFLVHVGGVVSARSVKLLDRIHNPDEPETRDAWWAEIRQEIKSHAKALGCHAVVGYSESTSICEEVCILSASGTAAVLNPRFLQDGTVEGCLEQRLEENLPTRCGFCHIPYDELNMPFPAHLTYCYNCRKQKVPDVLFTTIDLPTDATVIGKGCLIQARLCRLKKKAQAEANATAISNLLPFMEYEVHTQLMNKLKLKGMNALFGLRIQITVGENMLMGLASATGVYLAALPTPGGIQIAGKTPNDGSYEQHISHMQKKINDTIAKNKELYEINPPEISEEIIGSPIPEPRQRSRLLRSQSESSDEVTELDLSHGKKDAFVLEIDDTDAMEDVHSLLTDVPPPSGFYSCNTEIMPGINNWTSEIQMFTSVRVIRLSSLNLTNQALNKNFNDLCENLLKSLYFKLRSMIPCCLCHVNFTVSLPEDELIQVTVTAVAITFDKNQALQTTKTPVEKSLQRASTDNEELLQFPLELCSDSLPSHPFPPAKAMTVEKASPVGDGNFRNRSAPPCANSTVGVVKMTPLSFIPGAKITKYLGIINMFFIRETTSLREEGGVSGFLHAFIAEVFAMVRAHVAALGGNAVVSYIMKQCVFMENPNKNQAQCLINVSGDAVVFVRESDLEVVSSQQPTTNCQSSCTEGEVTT
UniProt Q6ZRI6: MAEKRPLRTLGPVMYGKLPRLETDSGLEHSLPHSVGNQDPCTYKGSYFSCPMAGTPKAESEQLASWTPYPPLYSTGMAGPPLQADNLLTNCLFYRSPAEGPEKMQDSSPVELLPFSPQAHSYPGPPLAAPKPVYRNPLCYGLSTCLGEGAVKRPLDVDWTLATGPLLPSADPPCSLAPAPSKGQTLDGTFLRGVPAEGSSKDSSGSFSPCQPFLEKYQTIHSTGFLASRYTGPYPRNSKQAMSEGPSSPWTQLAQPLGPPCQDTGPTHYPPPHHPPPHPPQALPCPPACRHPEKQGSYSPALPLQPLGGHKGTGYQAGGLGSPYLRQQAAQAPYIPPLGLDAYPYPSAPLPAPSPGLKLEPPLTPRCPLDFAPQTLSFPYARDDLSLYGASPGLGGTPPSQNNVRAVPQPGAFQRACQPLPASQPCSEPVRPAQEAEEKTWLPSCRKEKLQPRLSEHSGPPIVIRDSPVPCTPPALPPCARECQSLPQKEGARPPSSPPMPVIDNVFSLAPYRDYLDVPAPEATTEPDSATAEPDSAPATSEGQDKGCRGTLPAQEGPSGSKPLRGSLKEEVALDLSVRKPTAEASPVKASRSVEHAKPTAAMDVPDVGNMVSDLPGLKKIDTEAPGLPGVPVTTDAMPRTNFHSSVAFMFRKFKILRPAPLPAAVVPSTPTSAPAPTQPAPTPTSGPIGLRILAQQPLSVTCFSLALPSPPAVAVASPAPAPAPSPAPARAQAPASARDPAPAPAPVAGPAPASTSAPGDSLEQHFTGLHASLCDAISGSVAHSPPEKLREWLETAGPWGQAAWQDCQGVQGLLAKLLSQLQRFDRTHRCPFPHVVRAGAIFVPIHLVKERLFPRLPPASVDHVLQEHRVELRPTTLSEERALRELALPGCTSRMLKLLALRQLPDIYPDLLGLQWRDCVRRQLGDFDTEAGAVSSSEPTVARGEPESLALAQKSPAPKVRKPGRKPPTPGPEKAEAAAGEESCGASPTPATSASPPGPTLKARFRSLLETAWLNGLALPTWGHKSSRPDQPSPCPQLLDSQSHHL

The other results are listed elsewhere or left out.

Compound in this test: Cc1cc(ccc1-c1ccccc1)C(=O)N1CCCN(CC1)C(=O)CCl [compound 10]
Nature of the test: probe-labelled cysteine peptide fold change vs DMSO (competition) (log2 fold change); higher = less target engagement (more negative = stronger competition). To be noted: THP-1, incubation time: 4 h.
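Further: competitive profiling in live THP-1 cells: cysteine peptides tagged with an iodoacetamide desthiobiotin (IA-DTB) probe, intensity after compound treatment relative to DMSO-treated cells.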

“BRMS1_Q9HCU9_60_SECVSEMLDLEK (UniProt Q9HCU9)”: the “probe-labelled cysteine peptide fold change” value by setting is: (10 µM) 0.0333; (50 µM) 0.096.
For the target “CAND1_Q86VP6_71_CLGPLVSK (UniProt Q86VP6)”, the “probe-labelled cysteine peptide fold change” value reads like this: (10 µM) 0.0934; (50 µM) 0.125.
On to “C9orf64_Q5T6V5_170_FGGSFLNCVR (UniProt Q5T6V5)”, for which the “probe-labelled cysteine peptide fold change” value (10 µM) amounted to 0.134 and the “probe-labelled cysteine peptide fold change” value (50 µM) worked out at 0.227.
The matching figures for “CACYBP_Q9HB71_154_VKTDTVLILCR (UniProt Q9HB71)”: -0.0671 and -0.417.
On to “CAMK2D_Q13557_273_HPWICQR (UniProt Q13557)”, for which the “probe-labelled cysteine peptide fold change” value is -0.186 (10 µM) and -0.182 (50 µM).
As for “BST1_Q10588_271_LLQCVDHSTHPDCALK (UniProt Q10588)”, the “probe-labelled cysteine peptide fold change” value reads like this: (10 µM) -0.102; (50 µM) 0.112.
Consider “CANX_P27824_360+366_CESAPGCGVWQR (UniProt P27824)”, for which the “probe-labelled cysteine peptide fold change” value (10 µM) worked out at 0.0445 and the “probe-labelled cysteine peptide fold change” value (50 µM) turned out to be 0.401.
“BST1_Q10588_259_DMGFQYSCINDYRPVK (UniProt Q10588)”: the “probe-labelled cysteine peptide fold change” value (10 µM) was -0.226 and the “probe-labelled cysteine peptide fold change” value (50 µM) was -0.0265.
For the target “CAMK2D_Q13557_428_SNKPIHTIILNPHVHLVGDDAACIAYIR (UniProt Q13557)”, the “probe-labelled cysteine peptide fold change” value runs as follows: (10 µM) 0.115; (50 µM) 0.0887.
For the target “C16orf62_Q7Z3J2_864_LCETVMAQILEHLK (UniProt Q7Z3J2)”, the “probe-labelled cysteine peptide fold change” value was 0.0209 (10 µM) and -0.0604 (50 µM).
For “C2CD5_Q86YS7_449_FLQDGTVEGCLEQR (UniProt Q86YS7)”, the “probe-labelled cysteine peptide fold change” value was -0.18 (10 µM) and -0.289 (50 µM).
For “C15orf39_Q6ZRI6_831_CPFPHVVR (UniProt Q6ZRI6)” the same measures were -0.0204 and -0.937.
As to “C6orf120_Q7Z4R8_99_GDADLYVSASSLHPSFDDYELQSATCGPDAVSIPAHFR (UniProt Q7Z4R8)”, the “probe-labelled cysteine peptide fold change” value was -0.00545 (10 µM) and 0.205 (50 µM).
“C16orf62_Q7Z3J2_277_ETCLNWFFK (UniProt Q7Z3J2)”: the “probe-labelled cysteine peptide fold change” value came to 0.0597 (10 µM) and 0.0376 (50 µM).
